This experiment addresses T1, 3HA-PREB (human prolactin regulatory element binding protein) (human) (UniProt Q9HCU5).
T1 sequence: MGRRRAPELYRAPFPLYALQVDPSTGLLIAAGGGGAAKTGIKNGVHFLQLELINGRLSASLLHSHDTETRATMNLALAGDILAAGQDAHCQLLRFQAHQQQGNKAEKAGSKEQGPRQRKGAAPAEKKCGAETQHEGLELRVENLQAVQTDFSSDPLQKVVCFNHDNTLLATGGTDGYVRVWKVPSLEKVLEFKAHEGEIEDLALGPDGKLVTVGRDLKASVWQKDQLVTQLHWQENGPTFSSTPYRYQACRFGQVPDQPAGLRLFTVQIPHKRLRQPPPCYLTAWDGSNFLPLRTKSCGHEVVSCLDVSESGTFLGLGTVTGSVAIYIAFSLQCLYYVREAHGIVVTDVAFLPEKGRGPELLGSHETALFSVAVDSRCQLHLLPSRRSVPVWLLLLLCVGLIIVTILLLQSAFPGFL
The experiment in a line: co-IP; HEK293T cells co-transfected, 48 h; lysis buffer 50 mM Tris-HCl pH 8.0, 150 mM NaCl, 1% NP-40; lysates with antibodies 3 h, Protein A-agarose 4 °C 3 h, six washes; in Fig. 6B precipitation with HA antibodies, blots with HA and Flag antibodies.

No constants are given. Whether binding was seen depends on the method and setting. In cells and extracts the contact can be indirect. Binding calls can cover weak binding; strength is not graded here.

In the case of “PFV Tas DNA-binding domain (prototype foamy virus (PFV)) (domain or fragment)”, the binding entry was “binds”.

Consider “PFV Tas transcriptional activation domain (prototype foamy virus (PFV)) (domain or fragment)”, for which the binding result is recorded as “binds”.

The values above are taken from publication PMC10604407.
